Data as given in patent US20180000755A1 (UNIVERSITY OF TOKYO, published 2018).
Results are given in words; binding and its absence hold for the method and conditions named. Some binding calls cover weakened binding; strength is not graded here. One block for each binder: values may come before it.

Molecular target: T1, C-terminal membrane-proximal region of CCR2
T1 sequence (peptide): EKFRRYLSVFFRKHIT
Assay: HTRF experiment carried out in the past

binding: binds
B1: FROUNT fragment consisting of the region of the 549th to 656th amino acids (protein)
chain: GEKRFADAASLLLSLMTSRIAPRSFWMTLLTDALPLLEQKQVIFSAEQTYELMRCLEDLTSRRPVHGESDTEQLQDDDIETTKVEMLRLSLARNLARAIIREGSLEGS

binding: binds
B2: FROUNT fragment consisting of the region of the 532nd to 650th amino acids (protein)
chain: SDRLTFLGKYREFHRMYGEKRFADAASLLLSLMTSRIAPRSFWMTLLTDALPLLEQKQVIFSAEQTYELMRCLEDLTSRRPVHGESDTEQLQDDDIETTKVEMLRLSLARNLARAIIRE
